The campaign covered roughly 400,000 compounds. About 13,000 (3.2%) were called active. Inconclusive means that the source gave no clear call. Such entries were picked first, then a sample of the others. Calls follow the shape of the dose curve; as a rule, active = well fitted cell-killing curve with a large enough effect; inconclusive = small, poorly fitted or top-dose-only effect, or effect the other way; inactive = flat fitted curve, though single readings scatter. Where the call is inconclusive, the potency comes from a doubtful curve fit.
Assay: qHTS assay for MDR1-selective chemotherapeutics: Primary screen using the drug-selected MDR subline cells KB-V1; also: nearly all actives have a fitted effect of over 60% in size
Settings: KB-V1 MDR cells viability, CellTiter-Glo, 72 h; activity change, negative = cytotoxicity: at 46.1 µM (top of the series)
How it was run: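 Readout: CellTiter-Glo luminescence, 10 min after addition. Cells: KB-V1 MDR subline, 72 h at 37 degrees C with compound. Analysis: corrected, normalized data fitted to concentration-effect curves.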
% is scaled to controls: 0 for no effect and ±100 for the full control effect; potency is read from the fitted curve at half-maximal effect.

Compound	Potency	activity change, negative = cytotoxicity
CC(=O)c1sc(NC(=O)C2(F)C(F)(F)C(F)(F)C(F)(F)C(F)(F)C2(F)F)nc1C	active: 7.31 µM	–
COc1ccc(/C(N)=N/OC(=O)CSc2ccc(C)cc2)cc1OC	inconclusive: 18.4 µM [cytotoxic, single point]	–
CSc1nnc(CNC(=O)C23CC4CC(CC(C4)C2)C3)n1Cc1ccccc1	inconclusive: 8.2 µM [cytotoxic, partial curve]	–
NC(=O)NNc1ncc(C(F)(F)F)cc1Cl	inactive	–
c1ccc(-c2nc3ccccc3nc2N2CCOCC2)cc1	inactive	–
CCCN1C(=O)CN(C2CCCCCC2)C(=O)C1c1ccc(C)cc1 (configuration not stated)	inactive	–
Cc1nc2ccccc2nc1SCC(=O)N1CCC(C)CC1	inconclusive: 5.8 µM [cytotoxic, full curve]	–
CC(=O)Oc1ccccc1C1=NN(C(C)=O)C(c2ccccc2)C1 (configuration not stated)	inconclusive: 29.1 µM [cytotoxic, single point]	–
CCN(CC)C(C)C(=O)Nc1c2c(cc3c1CCC3)CCC2 (configuration not stated)	active: 9.2 µM	–
Cc1ccc(C)c(SCc2noc(C(=O)NC(C)C)c2C(=O)O)c1	inactive	–
O=C(N1CCN=C1SCc1cccnc1)C12CC3CC(CC(C3)C1)C2	inconclusive: 16.4 µM [cytotoxic, partial curve, poor fit]	–
Oc1ccc2ccccc2c1-c1sc(Nc2ccccc2)n[n+]1-c1ccc(F)cc1	inactive	–
CCN(CC(=O)NCc1ccc(F)cc1)C(=O)c1ccc(C)o1	inactive	–
CC(=O)c1ccc(OCCCC(=O)Nc2ccc(C)c(S(=O)(=O)N(C)C)c2)cc1	active: 23.1 µM	–
COc1cccc(-c2nnc(SCC(=O)N(C(C)C)C(C)C)o2)c1	active: 18.4 µM	–
C=CCN1CCN(C(c2ccccc2OC)c2nnnn2C(C)(C)C)CC1 (configuration not stated)	inconclusive: 23.1 µM [cytotoxic, partial curve, poor fit]	–
CCOc1ccc(N(CC)S(=O)(=O)c2ccc3c(c2)oc(=O)n3C)cc1	inconclusive: 16.4 µM [cytotoxic, single point]	–
Cc1csc2nc(O)c(C(=O)NCCCN3CCCC3=O)c(=O)n12	active: 18.4 µM	–
COc1ccc(S(=O)(=O)NCC2CCC(C(=O)NCCCN3CCCC3=O)CC2)cc1 (configuration not stated)	inconclusive: 20.6 µM [rising, single point]	–
CCOc1ccccc1OCC(=O)NC1CCCCC1	inactive	–
Cc1nc(NS(=O)(=O)c2ccc(Cl)s2)c2c3c(sc2n1)CCCC3	active: 11.6 µM	–
Cc1ccc(NC(=O)c2cncc(Br)c2)c([N+](=O)[O-])c1	inconclusive: 11.6 µM [cytotoxic, partial curve]	–
CC(C)CN(C(=O)c1ccco1)C1CCS(=O)(=O)C1 (configuration not stated)	inconclusive: 23.1 µM [rising, single point]	–
COc1cc(NC(=O)Cn2c(=O)n(Cc3ccco3)c(=O)c3sc4ccccc4c32)cc(OC)c1	inconclusive: 23.1 µM [rising, single point]	–

Another view of 13 compounds above:
Compound,Potency,"activity change, negative = cytotoxicity"
NC(=O)NNc1ncc(C(F)(F)F)cc1Cl,inactive,–
c1ccc(-c2nc3ccccc3nc2N2CCOCC2)cc1,inactive,–
CCCN1C(=O)CN(C2CCCCCC2)C(=O)C1c1ccc(C)cc1 (configuration not stated),inactive,–
Cc1nc2ccccc2nc1SCC(=O)N1CCC(C)CC1,"inconclusive: 5.8 µM [cytotoxic, full curve]",–
CC(=O)Oc1ccccc1C1=NN(C(C)=O)C(c2ccccc2)C1 (configuration not stated),"inconclusive: 29.1 µM [cytotoxic, single point]",–
CCN(CC)C(C)C(=O)Nc1c2c(cc3c1CCC3)CCC2 (configuration not stated),active: 9.2 µM,–
Cc1ccc(C)c(SCc2noc(C(=O)NC(C)C)c2C(=O)O)c1,inactive,–
O=C(N1CCN=C1SCc1cccnc1)C12CC3CC(CC(C3)C1)C2,"inconclusive: 16.4 µM [cytotoxic, partial curve, poor fit]",–
Oc1ccc2ccccc2c1-c1sc(Nc2ccccc2)n[n+]1-c1ccc(F)cc1,inactive,–
CCN(CC(=O)NCc1ccc(F)cc1)C(=O)c1ccc(C)o1,inactive,–
CC(=O)c1ccc(OCCCC(=O)Nc2ccc(C)c(S(=O)(=O)N(C)C)c2)cc1,active: 23.1 µM,–
COc1cccc(-c2nnc(SCC(=O)N(C(C)C)C(C)C)o2)c1,active: 18.4 µM,–
C=CCN1CCN(C(c2ccccc2OC)c2nnnn2C(C)(C)C)CC1 (configuration not stated),"inconclusive: 23.1 µM [cytotoxic, partial curve, poor fit]",–

(continued)

Compound	Potency	activity change, negative = cytotoxicity
CN(Cc1ccccc1)S(=O)(=O)c1ccc(OCC(=O)NCc2cccnc2)cc1	inconclusive: 7.31 µM [cytotoxic, partial curve, poor fit]	–
CCOc1ccc(Br)cc1S(=O)(=O)Nc1ccccc1N1CCOCC1	inconclusive: 18.4 µM [cytotoxic, partial curve, poor fit]	–
O=C(Nc1ccc(S(=O)(=O)Nc2ccccn2)cc1)c1cccc([N+](=O)[O-])c1	–	inconclusive: 6.76%
C=CCN(C(C(=O)OC)C(C)C)S(=O)(=O)CCNCc1ccccc1 (configuration not stated)	inconclusive: 8.2 µM [cytotoxic, partial curve]	–
C[C@@H]1CN([C@@H](C)CO)S(=O)(=O)c2ccc(C#CC3CCCCC3)cc2O[C@@H]1CN(C)Cc1cccnc1	inconclusive: 29.1 µM [cytotoxic, single point]	–
Cc1ccccc1CCNC(=O)C1CCC(=O)N(Cc2ccc(Cl)cc2)C1 (configuration not stated)	inconclusive: 29.1 µM [cytotoxic, single point]	–
CCCCn1c(SCC(=O)Nc2cc(C(F)(F)F)cc(C(F)(F)F)c2)nnc1C(CC)N(C)C (configuration not stated)	active: 14.6 µM	–
O=C(CCl)Nc1ccccc1Sc1ccc(Cl)cc1	inconclusive: 15.8 µM [cytotoxic, single point]	–
CCc1ccc(N(CC(=O)Nc2sc3c(c2C(=O)OC)CCCC3)S(C)(=O)=O)cc1	active: 9.2 µM	–
Cc1nnc2ccc(N3CCN(c4cccc(C(F)(F)F)c4)CC3)nn12	inactive	–
CC(OC(=O)CCC(=O)c1cccs1)C(=O)Nc1ccccc1[N+](=O)[O-] (configuration not stated)	inconclusive: 5.8 µM [rising, partial curve, poor fit]	–
Cc1noc(C)c1CSCC(=O)Nc1cc(Cl)ccc1N1CCCCC1	inconclusive: 4.61 µM [cytotoxic, partial curve]	–
CCn1cc(C(=O)OCc2ccc(F)cc2)c(=O)c2ccc(C)nc21	inconclusive: 4.11 µM [cytotoxic, partial curve, poor fit]	–
O=C(COC(=O)c1ccccc1O)NCC1COc2ccccc2O1 (configuration not stated)	inconclusive: 13 µM [rising, single point]	–
COc1ccc(CCN2C(=O)CC(N3CCOCC3)C2=O)cc1OC (configuration not stated)	inconclusive: 16.4 µM [rising, partial curve, poor fit]	–
CSc1nc(N2CCOCC2)c2c3c(sc2n1)CCC3	inactive	–
COc1cccc(NC(=O)c2ccc(NC(=O)C3CC(=O)OC34CCCCC4)cc2)c1 (configuration not stated)	inactive	–
CCC(=O)Nc1nc2ccccc2n1Cc1ccccc1C	inconclusive: 32.6 µM [cytotoxic, single point]	–
CCC(C)NC(=O)c1cc(-c2cccc(OC)c2)on1 (configuration not stated)	inactive	–
Cc1cccc(NC(=O)CSc2ncc3c(n2)-c2ccccc2N(Cc2ccc(F)cc2)S3(=O)=O)c1C	inactive	–
CCC(C)c1ccccc1N1CC(C(=O)NCCCn2nc(C)cc2C)CC1=O (configuration not stated)	inactive	–
O=C(CCCCCBr)N1CCC(CC2CC(c3cccc(Br)c3)=NO2)(C(=O)NCC2CCCCC2)CC1 (configuration not stated)	inactive	–
CCN1CCN(c2c(C=O)c(Cl)nc3ccc(OC)cc23)CC1	inactive	–

From PubChem BioAssay AID1347076 (National Center for Advancing Translational Sciences (NCATS), 2019)
